# Source: the supplement of paper PMC10849652
# Sequences of proteins named here, by UniProt entry; tags and fusion partners are left off. A change or cut given only in a name is not applied to a line headed by its entry.
# UniProt O43765: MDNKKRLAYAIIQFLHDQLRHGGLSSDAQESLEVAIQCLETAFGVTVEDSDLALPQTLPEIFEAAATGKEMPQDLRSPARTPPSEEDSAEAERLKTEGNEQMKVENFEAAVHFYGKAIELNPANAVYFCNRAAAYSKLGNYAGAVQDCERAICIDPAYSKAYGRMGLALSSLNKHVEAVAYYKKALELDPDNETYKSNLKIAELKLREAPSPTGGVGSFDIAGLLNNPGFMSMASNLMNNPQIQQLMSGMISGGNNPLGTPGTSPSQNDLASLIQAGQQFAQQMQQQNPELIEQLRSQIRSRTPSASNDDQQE
# UniProt Q96ST3: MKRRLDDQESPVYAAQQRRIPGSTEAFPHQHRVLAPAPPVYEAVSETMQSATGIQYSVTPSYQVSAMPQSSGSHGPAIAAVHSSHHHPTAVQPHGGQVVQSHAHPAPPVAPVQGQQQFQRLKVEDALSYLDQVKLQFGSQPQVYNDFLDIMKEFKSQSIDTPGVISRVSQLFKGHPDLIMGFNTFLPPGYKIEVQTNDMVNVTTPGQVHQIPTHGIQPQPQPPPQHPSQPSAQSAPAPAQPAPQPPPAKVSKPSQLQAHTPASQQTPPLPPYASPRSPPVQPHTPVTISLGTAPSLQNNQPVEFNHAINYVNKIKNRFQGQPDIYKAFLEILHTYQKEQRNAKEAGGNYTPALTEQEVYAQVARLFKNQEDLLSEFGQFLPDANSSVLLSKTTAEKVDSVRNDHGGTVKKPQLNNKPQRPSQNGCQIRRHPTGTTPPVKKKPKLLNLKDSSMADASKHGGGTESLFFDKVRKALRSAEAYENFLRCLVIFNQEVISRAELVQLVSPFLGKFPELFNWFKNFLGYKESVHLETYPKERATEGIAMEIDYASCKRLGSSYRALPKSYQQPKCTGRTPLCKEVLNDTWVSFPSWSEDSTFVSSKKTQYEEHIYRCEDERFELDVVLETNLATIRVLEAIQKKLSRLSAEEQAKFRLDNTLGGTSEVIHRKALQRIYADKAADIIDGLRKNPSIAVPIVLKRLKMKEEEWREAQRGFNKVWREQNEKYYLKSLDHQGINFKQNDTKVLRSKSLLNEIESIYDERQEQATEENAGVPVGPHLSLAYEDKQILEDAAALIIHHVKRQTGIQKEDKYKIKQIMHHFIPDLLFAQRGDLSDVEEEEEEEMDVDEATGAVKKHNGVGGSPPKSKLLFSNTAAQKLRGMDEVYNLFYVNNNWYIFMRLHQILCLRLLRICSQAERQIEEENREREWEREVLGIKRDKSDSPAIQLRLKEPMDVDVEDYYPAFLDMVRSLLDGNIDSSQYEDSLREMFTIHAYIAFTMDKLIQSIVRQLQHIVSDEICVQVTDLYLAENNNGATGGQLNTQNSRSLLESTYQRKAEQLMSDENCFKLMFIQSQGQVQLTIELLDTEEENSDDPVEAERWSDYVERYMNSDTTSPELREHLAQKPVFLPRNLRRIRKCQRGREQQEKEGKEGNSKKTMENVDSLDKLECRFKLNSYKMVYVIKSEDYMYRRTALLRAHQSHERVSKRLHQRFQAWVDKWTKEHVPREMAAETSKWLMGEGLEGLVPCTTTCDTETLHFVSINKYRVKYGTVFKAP
# UniProt O43236: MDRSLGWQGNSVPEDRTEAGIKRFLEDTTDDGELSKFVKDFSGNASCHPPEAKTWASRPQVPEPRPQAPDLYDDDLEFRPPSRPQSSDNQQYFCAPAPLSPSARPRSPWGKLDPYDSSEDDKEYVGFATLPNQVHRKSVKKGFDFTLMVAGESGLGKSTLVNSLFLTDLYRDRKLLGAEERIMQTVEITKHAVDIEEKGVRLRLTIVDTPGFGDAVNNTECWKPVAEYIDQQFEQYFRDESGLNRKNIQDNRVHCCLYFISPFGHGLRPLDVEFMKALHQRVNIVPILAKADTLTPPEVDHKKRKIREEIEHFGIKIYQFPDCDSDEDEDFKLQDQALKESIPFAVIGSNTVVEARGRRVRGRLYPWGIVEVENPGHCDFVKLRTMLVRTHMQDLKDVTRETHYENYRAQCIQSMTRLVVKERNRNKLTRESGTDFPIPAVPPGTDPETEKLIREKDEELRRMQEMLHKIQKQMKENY
# UniProt Q99611, whole entry, looked up: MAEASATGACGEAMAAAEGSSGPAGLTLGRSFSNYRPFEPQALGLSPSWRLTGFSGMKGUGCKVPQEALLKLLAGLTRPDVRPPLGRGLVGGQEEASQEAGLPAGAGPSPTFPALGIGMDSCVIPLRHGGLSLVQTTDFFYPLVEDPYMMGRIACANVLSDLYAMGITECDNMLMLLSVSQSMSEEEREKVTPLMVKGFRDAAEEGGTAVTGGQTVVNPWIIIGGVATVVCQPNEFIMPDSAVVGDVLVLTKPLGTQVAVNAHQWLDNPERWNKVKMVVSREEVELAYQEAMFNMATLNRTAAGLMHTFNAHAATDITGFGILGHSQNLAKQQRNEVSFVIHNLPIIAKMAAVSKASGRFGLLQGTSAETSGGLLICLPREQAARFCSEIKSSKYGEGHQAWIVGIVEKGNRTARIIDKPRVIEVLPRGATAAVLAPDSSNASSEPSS
# UniProt Q68CR1: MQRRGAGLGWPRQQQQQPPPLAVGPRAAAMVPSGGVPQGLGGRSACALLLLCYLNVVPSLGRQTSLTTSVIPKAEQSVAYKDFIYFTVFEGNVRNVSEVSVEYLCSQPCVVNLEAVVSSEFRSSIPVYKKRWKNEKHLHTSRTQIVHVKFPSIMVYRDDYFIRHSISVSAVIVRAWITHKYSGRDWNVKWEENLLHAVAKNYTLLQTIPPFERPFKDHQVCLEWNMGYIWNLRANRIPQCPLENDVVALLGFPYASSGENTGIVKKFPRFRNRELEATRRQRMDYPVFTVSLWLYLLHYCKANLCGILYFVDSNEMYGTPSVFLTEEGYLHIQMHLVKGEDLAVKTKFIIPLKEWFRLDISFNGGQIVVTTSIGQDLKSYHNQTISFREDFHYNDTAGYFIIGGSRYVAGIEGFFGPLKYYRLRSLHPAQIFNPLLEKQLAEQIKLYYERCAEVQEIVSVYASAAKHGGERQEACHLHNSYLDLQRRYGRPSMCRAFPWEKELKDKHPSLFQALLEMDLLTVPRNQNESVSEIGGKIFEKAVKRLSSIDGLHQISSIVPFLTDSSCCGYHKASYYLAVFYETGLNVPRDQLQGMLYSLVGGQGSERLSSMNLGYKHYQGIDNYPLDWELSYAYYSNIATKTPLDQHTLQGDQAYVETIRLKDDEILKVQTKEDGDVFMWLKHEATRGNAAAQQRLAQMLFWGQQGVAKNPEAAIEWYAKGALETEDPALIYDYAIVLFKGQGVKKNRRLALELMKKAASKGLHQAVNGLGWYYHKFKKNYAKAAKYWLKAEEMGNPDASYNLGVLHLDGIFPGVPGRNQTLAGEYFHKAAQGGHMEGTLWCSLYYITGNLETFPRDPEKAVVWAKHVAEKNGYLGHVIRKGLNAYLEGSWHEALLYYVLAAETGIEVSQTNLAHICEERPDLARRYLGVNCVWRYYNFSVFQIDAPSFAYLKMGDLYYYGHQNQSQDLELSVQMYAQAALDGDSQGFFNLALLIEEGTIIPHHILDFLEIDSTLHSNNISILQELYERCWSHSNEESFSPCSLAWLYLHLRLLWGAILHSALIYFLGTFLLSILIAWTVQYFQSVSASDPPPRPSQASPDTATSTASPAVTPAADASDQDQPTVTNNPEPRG
# UniProt Q8NBJ9: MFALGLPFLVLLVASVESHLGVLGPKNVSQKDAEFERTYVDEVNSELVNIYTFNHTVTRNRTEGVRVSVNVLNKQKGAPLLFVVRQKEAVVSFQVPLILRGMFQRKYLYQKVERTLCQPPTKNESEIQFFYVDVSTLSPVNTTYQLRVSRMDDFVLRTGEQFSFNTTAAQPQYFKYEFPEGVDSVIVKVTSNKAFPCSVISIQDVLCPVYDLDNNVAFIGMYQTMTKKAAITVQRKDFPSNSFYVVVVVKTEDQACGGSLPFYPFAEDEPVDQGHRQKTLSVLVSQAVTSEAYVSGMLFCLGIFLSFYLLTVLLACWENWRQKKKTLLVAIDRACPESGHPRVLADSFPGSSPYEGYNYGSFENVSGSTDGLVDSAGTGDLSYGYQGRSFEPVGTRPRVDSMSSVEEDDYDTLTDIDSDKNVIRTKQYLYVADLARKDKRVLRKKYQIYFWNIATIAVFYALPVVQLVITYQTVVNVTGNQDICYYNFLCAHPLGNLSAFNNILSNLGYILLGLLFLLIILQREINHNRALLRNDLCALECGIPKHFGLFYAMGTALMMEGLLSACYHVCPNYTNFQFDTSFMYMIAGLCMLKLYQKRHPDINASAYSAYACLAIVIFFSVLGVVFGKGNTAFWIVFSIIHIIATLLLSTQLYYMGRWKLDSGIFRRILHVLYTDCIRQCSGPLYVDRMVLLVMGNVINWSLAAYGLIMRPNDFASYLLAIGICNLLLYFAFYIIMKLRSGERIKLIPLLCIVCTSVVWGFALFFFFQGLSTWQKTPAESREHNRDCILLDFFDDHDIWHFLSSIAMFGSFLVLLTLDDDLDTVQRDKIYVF
# UniProt Q9NRX5: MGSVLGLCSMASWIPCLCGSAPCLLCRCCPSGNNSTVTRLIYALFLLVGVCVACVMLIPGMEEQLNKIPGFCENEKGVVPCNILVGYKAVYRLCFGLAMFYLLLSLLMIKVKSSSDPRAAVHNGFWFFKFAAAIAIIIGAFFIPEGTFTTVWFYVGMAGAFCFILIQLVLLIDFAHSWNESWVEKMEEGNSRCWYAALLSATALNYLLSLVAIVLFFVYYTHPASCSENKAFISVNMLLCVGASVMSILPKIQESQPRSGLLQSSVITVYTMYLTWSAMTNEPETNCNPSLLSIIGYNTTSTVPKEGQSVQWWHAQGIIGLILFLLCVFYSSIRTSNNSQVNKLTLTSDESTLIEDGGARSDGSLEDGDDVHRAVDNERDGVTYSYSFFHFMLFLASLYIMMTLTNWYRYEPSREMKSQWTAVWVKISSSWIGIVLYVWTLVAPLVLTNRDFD
# UniProt Q86TU7: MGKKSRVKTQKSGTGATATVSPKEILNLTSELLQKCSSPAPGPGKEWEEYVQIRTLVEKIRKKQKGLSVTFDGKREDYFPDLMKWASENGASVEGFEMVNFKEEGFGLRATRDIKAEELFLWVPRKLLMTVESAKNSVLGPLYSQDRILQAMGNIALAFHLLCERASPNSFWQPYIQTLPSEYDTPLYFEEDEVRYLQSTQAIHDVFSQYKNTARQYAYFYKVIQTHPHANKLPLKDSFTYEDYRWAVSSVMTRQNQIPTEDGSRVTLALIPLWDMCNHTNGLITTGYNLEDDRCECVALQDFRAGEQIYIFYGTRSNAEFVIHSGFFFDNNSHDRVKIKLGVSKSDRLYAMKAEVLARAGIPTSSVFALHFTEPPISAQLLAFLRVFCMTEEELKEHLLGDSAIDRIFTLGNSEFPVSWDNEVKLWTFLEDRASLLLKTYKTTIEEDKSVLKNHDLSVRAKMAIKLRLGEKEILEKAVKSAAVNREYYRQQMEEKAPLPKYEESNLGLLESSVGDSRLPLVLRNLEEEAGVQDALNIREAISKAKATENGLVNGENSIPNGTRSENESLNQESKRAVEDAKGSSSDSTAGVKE
# UniProt Q8IZQ5, whole entry, looked up: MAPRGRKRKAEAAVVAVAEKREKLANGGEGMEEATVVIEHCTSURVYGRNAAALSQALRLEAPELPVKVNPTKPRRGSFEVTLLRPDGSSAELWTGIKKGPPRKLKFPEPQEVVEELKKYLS
# UniProt P63208, whole entry, looked up: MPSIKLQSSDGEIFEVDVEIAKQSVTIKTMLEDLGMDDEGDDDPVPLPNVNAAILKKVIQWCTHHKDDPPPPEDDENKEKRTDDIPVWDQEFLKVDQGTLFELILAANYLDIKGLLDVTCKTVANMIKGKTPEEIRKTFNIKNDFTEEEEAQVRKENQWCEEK
# UniProt Q8TD22: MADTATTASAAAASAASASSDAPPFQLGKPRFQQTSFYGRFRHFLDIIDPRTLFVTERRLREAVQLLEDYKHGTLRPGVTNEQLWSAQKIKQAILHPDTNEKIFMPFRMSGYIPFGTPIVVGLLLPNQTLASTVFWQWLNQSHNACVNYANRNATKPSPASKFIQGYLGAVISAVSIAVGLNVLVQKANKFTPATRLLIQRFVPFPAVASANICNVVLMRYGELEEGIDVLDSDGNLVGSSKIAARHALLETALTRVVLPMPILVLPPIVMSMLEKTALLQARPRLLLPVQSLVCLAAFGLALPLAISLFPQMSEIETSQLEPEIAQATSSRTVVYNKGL
# UniProt Q99961: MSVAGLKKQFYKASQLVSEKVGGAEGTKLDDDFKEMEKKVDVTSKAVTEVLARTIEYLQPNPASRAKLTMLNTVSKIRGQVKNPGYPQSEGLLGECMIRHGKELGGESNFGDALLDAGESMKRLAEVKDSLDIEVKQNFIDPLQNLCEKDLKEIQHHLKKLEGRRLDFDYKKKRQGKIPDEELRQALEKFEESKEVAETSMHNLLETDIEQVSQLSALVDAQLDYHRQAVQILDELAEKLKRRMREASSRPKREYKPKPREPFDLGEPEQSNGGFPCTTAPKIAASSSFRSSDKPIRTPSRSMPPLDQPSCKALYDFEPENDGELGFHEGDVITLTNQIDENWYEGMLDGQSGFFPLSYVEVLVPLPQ
# The list shows a part of the results.
# Compound: CC1=C(C(CC(=O)N1)C2=CC=C(C=C2)C(F)(F)F)C(=O)NC3=C(C=C4C(=C3)C=NN4)F
# Test: log2 fold change, soluble protein after heating vs DMSO (PISA); higher = thermal stabilisation; K562 cells, 10 uM, 30 min; active = over 0.2 and 3.5 SD of the protein, either way, in both replicates (recomputed)
# Outline: (§1)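 K562 cells at 2×10^6 cells/mL were given 10 μM compound for 30 min. Aliquots then went through 3 min of heating across 48°C-58°C, were pooled, and were extracted in PBS with 0.5% NP-40 at 4°C, and the supernatant after 21,000xg for 90 min was quantified by TMTpro 16plex LC-MS/MS with channel sums equalised. Thermal stability relative to control samples, from duplicates, is given as log2 fold change.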
row,Target,log2 fold change
1,SFXN2 (UniProt Q96NB2),inactive: -0.005
2,SGTA (UniProt O43765),inactive: 0.022
3,SHOC2 (UniProt Q9UQ13),inactive: -0.036
4,SEPSECS (UniProt Q9HD40),inactive: -0.042
5,SERPINF1 (UniProt P36955),inactive: 0.003
6,SIN3A (UniProt Q96ST3),inactive: 0.101
7,SEPTIN9 (UniProt Q9UHD8),inactive: 0.013
8,SEPTIN4 isoform 4 (UniProt O43236),inactive: 0.006
9,SEPHS2 (UniProt Q99611),inactive: 0.02
10,"SERPINB6, A0A087X1N8",inactive: 0.027
11,SHC1 isoform 6 (UniProt P29353),inactive: -0.006
12,SEL1L3 (UniProt Q68CR1),inactive: -0.059
13,SIGMAR1 (UniProt Q99720),inactive: -0.021
14,SELENOF (UniProt O60613),inactive: -0.017

# Compound: CC1=C(C2=C(C=C1)C(=O)C3=CC=CC=C3N2CCCN)C
# Test: as above
# Outline: as §1
row,Target,log2 fold change
1,SFXN2 (UniProt Q96NB2),inactive: 0.115
2,SESN2 (UniProt P58004),inactive: -0.017
3,SGPL1 (UniProt O95470),inactive: 0.146
4,SGTA (UniProt O43765),inactive: 0.025
5,SIDT2 isoform 2 (UniProt Q8NBJ9),inactive: 0.005
6,SHOC2 (UniProt Q9UQ13),inactive: 0.092
7,SEPSECS (UniProt Q9HD40),inactive: -0.022
8,SERINC1 (UniProt Q9NRX5),inactive: 0
9,SERPINF1 (UniProt P36955),inactive: -0.131
10,SIN3A (UniProt Q96ST3),inactive: -0.092
11,SEH1L isoform 1 (UniProt Q96EE3),inactive: 0
12,SETD3 (UniProt Q86TU7),inactive: 0.05
13,SEPTIN9 (UniProt Q9UHD8),inactive: 0.044
14,SEPTIN4 isoform 4 (UniProt O43236),inactive: 0.117
15,SHCBP1 (UniProt Q8NEM2),inactive: 0.02
16,SENP6 (UniProt Q9GZR1),inactive: 0.057

row,Target,log2 fold change
1,SELENOH (UniProt Q8IZQ5),inactive: 0.057
2,SETMAR (UniProt Q53H47),active: 0.509
3,SKP1 (UniProt P63208),inactive: -0.049
4,SH3GLB2 (UniProt Q9NR46),inactive: -0.021
5,SEPHS2 (UniProt Q99611),inactive: -0.01
6,SERPINA7 (UniProt P05543),inactive: -0.245
7,"SERPINB6, A0A087X1N8",inactive: -0.053
8,SHC1 isoform 6 (UniProt P29353),inactive: -0.035
9,SERINC3 (UniProt Q13530),inactive: -0.039
10,SEL1L3 (UniProt Q68CR1),inactive: -0.098
11,SFXN5 (UniProt Q8TD22),inactive: 0.09
12,SH3GL1 (UniProt Q99961),inactive: 0.037
13,SEPTIN5 (UniProt Q99719),inactive: 0.011
14,SIRT2 (UniProt Q8IXJ6),inactive: -0.022
15,SIGMAR1 (UniProt Q99720),inactive: -0.004
16,SELENOF (UniProt O60613),inactive: 0.134
